Measured values reported in US20260209383A1, “SITE-[…] […] ANTIBODY DRUG CONJUGATES” (SEAGEN INC., priority 2022, published 2026).
Some entries share one result that the patent states for a list of compounds.

Tested on: HPAFII cells
Assay: In vitro cytotoxicity assay (CellTiter-Glo), HPAFII
Type: cell-based
Method: In vitro cytotoxicity assay: The cytotoxic effect of an EC4-based ADC was measured by a cell proliferation assay employing the protocol in the Promega Corp. Technical Bulletin TB288; and Mendoza et a1., 2002, Cancer Res. 62:5485-5488), the methods of which are specifically incorporated by reference herein. Briefly, an aliquot of 40 μl of cell culture containing about 400 cells in medium was deposited in each well of a 384-well, opaque-walled plate. A 10 μL aliquot of free cytotoxic agent or ADC was added to the experimental wells and incubated for 96 hr and then incubated at room temperature for approximately 30 mins whereupon a volume of CellTiter-Glo™ reagent equal to the volume of cell culture medium present in each well was added. The contents were mixed for 2 mins on an orbital shaker to induce cell lysis and the plate was incubated at room temperature for 10 mins to stabilize the luminescence signal for recordation.
Anti-ITGB6 ADCs were tested for potency. The antibodies were engineered with the cysteine pairs disclosed above in the previous Examples. The efficacy of anti-ITGB6 EC4 ADCs were also tested against conventional anti-ITGB6 ADCs. The cells were treated with conventional or EC4 ADCs, then the remaining cells were counted to assess the cytotoxic effects of each EC4 variant compared to conventional ADCs. […]

B1: h2A2-mc-vc-MMAE(4): conventional anti-ITGB6 ADC, h2A2 without engineered cysteines conjugated with mc-vc-MMAE; positive control (conjugate)
VH: QFQLVQSGAEVKKPGASVKVSCKASGYSFTDYNVNWVRQAPGQGLEWIGVINPKYGTTRYNQKFKGRATLTVDKSTSTAYMELSSLRSEDTAVYYCTRGLNAWDYWGQGTLVTVSS
VL: DIQMTQSPSSLSASVGDRVTITCGASENIYGALNWYQQKPGKAPKLLIYGATNLEDGVPSRFSGSGSGRDYTFTISSLQPEDIATYYCQNVLTTPYTFGQGTKLEIK
ADC concentration above which ADC was cytotoxic: greater than 10 ng/mL
